One sequence from paper PMC5996148 can be followed below.

Amino acid sequences for entries named in this document (tags omitted).
UniProt P30530, whole entry: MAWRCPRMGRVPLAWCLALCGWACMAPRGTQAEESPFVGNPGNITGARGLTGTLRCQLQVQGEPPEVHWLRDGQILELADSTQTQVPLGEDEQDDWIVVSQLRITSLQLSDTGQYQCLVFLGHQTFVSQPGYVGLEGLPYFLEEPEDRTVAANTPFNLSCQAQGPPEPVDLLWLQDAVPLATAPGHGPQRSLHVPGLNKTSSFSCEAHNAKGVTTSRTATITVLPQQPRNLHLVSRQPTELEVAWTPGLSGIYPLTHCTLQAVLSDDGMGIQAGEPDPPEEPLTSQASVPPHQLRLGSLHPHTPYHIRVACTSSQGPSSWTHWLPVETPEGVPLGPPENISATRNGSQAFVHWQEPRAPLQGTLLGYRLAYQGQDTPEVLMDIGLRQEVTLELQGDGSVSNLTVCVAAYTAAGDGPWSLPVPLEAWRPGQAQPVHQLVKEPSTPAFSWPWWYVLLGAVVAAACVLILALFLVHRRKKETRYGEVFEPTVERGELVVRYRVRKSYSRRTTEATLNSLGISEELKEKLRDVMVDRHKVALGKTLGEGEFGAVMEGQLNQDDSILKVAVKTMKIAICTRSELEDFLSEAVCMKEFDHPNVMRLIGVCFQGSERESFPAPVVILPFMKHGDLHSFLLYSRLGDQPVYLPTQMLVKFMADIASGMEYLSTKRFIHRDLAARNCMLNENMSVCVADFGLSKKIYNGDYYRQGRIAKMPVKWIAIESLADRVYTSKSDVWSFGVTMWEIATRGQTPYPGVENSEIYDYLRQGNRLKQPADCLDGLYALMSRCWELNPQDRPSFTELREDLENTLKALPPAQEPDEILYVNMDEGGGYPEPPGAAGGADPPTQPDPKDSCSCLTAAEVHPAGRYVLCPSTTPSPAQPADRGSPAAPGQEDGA

Among the test systems are ATP6V1B1 (human); ATXN3 (human); AZIN1 (human); Alpha-catulin (human).
Common to all, as to test: protein microarray (ProtoArray v5.0), streptavidin-Alexa Fluor 647
Common to all, as to conditions: 3'-biotin; 20 mM Tris (pH 7.5), 5 mM MgCl2, 100 mM KCl, 0.1% Tween-20, A/T-rich and random oligonucleotide blockers; temperature not stated; high values mean tight binding

The test system of assay [1] is ATP-dependent RNA helicase A (human).
Assay [2] concerns ATP-dependent RNA helicase DHX8 (human).
For another assay, the target named is T1, ATP5C1 (UniProt P36542).
T1 sequence: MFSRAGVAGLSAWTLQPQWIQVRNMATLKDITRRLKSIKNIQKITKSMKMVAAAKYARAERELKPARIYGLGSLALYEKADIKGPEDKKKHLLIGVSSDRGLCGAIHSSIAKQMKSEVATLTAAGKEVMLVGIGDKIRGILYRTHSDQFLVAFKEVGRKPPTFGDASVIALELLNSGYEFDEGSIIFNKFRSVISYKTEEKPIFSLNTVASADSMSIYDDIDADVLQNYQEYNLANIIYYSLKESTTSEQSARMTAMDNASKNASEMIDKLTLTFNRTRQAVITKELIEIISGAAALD

The next assay deals with T2, ATP5O (UniProt P48047).
T2 sequence: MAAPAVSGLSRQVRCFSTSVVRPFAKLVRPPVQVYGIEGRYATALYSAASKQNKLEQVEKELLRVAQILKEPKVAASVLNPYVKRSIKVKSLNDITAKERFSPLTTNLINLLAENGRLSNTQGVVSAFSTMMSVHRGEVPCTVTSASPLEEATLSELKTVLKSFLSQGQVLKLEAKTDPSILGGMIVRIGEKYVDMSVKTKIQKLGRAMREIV

The target of a further assay is AXL (UniProt P30530).
The test system of assay [3] is Acyl carrier protein, mitochondrial (human).
In assay [4] the test system is Adenylate kinase isoenzyme 4, mitochondrial (human).
Assay [5] concerns Alcohol dehydrogenase class 4 mu/sigma chain (human).
Assay [6] relates to Aldehyde dehydrogenase family 16 member A1 (human).
Assay [7] deals with Aldehyde dehydrogenase family 8 member A1 (human).
In assay [8] the test system is Aldo-keto reductase family 1 member C2 (human).
Assay [9] concerns Amino-terminal enhancer of split (human).
Assay [10] has as its system Anaphase-promoting complex subunit 11 (human).
Assay [11] has as its system Angiogenic factor with G patch and FHA domains 1 (human).
In assay [12] the test system is Annexin-2 receptor (human).
For assay [13], the system named is Apolipoprotein A-IV (human).

Several values for one entry are separate records, joined by “and”; a condition that tells them apart may be missing. Equal entries are not always repeated. Some of the results follow. For some assays here: Construct or isoform of the protein are uncertain.

Regarding “GGGGACAGGGGTATGGGGAGGGG [G4-3 biotinylated (CtG)]”, the binding signal was -0.301 z-score in [1]; 3.32 z-score in [2]; -0.316 z-score with ATP5C1; 3.33 z-score with ATP5O; -0.325 z-score in the assay on ATP6V1B1 (human); -0.312 z-score with ATXN3 (human). Moreover, the binding signal with AXL was -0.326 z-score; in the assay with AZIN1 (human), -0.308 z-score; in assay [3] it was -0.332 z-score; in assay [4], -0.332 z-score; in assay [5] it was -0.309 z-score; in assay [6], -0.322 z-score. Further, the binding signal in assay [7] is -0.339 z-score; in assay [8], -0.318 z-score; with Alpha-catulin (human), -0.334 z-score; in [9], -0.334 z-score; in [10], -0.318 z-score; in [11], 4 z-score. Besides, the binding signal is -0.296 z-score and -0.341 z-score in [12]; -0.33 z-score in assay [13].
